Data from article PMC9645627.
These are yes or no findings as the source states them, for the method shown. For some assays here: Binding seen in cells or lysates may run through a third protein. Some entries that bind do so weakly or less than the wild type. For some assays here: Where a sequence is shown, tags or fusion partners need not be part of it.

By UniProt entry, the sequences of proteins in these tests, tags left out. Where a name states a change or a piece, a line headed by the entry shows the natural chain unless it says otherwise.
UniProt P25491: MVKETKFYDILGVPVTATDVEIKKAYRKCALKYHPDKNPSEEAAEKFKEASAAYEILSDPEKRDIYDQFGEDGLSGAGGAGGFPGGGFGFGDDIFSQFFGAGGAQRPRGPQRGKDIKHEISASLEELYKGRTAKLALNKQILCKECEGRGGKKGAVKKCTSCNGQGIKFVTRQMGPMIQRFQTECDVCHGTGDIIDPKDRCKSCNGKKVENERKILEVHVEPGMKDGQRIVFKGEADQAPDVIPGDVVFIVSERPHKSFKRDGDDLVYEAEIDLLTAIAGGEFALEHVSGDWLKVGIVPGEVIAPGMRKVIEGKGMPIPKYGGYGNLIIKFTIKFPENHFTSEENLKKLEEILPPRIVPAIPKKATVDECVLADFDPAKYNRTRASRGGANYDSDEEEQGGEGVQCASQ
UniProt P10591: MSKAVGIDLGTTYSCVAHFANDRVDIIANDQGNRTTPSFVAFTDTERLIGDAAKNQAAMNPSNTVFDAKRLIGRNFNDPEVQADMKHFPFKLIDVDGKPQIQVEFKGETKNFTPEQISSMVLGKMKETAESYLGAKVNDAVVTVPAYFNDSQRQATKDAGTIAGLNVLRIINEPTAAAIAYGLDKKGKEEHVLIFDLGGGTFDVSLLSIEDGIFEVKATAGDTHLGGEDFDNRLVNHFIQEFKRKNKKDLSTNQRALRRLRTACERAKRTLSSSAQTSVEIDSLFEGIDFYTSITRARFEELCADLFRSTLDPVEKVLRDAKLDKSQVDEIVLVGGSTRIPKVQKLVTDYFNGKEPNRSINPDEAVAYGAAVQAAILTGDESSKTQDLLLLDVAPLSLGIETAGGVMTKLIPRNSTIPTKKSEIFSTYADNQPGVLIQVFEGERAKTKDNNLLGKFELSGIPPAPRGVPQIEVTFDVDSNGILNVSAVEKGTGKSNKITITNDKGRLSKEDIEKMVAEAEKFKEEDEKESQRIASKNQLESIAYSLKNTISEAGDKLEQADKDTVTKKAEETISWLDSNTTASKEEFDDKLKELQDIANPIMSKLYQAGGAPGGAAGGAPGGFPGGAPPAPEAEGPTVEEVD
UniProt P09435: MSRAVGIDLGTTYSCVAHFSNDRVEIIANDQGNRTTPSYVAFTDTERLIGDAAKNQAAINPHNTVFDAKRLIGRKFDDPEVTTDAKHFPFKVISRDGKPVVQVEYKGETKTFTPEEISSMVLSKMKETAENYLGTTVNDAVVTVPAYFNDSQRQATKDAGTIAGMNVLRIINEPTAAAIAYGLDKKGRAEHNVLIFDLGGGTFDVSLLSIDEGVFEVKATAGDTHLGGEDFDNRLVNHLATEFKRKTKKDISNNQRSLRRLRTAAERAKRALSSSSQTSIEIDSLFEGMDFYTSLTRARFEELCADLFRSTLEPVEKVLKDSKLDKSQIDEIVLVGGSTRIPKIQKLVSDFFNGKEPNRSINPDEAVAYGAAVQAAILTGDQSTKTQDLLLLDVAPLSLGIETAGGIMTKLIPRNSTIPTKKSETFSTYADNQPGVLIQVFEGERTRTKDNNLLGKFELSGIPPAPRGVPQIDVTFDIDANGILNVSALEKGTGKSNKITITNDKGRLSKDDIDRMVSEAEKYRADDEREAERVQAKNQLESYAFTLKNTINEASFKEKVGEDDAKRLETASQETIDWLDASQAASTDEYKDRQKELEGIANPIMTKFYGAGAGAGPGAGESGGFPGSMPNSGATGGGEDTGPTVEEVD
UniProt P22202: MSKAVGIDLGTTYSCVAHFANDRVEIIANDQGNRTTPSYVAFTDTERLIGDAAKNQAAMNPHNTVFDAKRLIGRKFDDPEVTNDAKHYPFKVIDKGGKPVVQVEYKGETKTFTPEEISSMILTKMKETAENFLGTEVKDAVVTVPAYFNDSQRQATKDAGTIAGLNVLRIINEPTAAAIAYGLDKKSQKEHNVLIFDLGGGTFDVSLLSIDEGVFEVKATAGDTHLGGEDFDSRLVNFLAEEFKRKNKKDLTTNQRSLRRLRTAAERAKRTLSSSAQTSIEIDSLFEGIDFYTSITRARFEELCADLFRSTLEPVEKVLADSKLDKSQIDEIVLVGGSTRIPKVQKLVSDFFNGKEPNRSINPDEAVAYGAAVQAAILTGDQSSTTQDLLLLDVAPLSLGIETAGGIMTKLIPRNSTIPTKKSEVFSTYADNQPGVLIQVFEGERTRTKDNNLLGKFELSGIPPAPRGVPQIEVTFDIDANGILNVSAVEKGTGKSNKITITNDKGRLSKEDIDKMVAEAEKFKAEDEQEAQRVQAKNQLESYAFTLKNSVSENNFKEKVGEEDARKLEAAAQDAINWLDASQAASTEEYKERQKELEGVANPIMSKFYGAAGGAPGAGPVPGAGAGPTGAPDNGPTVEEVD

Legend:
[1] = molecular target: FLAG-v-Src (Rous sarcoma virus) (UniProt P00524); experiment: co-IP
[2] = molecular target: T1, His6-Sti1, purified (S. cerevisiae) (UniProt P15705); experiment: pull-down; purified His6-Sti1 incubated with yeast lysate (Ssa1 or Ssa1-T175N as sole cytosolic Hsp70), then with Co2+-NTA resin; blots with antibodies against Hsp70, Hsp90 and His6; only the target purified
T1 sequence: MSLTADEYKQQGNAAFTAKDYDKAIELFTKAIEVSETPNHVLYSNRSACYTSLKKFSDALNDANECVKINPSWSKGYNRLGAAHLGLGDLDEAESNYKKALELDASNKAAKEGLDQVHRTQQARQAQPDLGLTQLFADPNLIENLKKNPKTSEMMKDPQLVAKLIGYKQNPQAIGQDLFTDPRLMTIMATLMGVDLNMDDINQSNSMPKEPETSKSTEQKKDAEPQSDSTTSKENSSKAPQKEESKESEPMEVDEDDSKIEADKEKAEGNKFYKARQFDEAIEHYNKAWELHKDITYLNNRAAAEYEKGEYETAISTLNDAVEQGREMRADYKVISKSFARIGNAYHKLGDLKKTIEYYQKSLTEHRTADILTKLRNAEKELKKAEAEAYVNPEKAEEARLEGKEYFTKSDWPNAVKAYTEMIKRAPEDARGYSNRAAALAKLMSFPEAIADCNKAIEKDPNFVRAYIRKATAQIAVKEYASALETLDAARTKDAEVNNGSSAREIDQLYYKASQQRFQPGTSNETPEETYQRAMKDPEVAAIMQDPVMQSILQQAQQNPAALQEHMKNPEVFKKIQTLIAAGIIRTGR

[3] = molecular target: His6-Ydj1 (S. cerevisiae) (UniProt P25491); experiment: pull-down; purified His6-Ydj1 bound to cobalt affinity resin for 1 h, incubated with clarified yeast lysate for 1 h; eluted with 20 mM EDTA; blots with anti-Hsp70, anti-Hsp90, anti-Ydj1; only the target purified
[4] = molecular target: His6-Ydj1 (S. cerevisiae) (UniProt P25491); experiment: BLI; Ssa1, Ssa2, Ssa3 and Ssa4 with Ydj1; set-up not told here (as in ref. 26)

binding [4]	Substance	binding [1]	binding [2]	binding [3]
	Ssa1 (wt), expressed as sole Ssa Hsp70 in strain A1 (from UniProt P10591 1-642)	binds	binds	binds
	Ssa1-D158N, expressed as sole Ssa Hsp70 in strain A1-D158N (from UniProt P10591 1-642)			binds
	Ssa1-T175N, expressed as sole Ssa Hsp70 in strain A1-T175N (from UniProt P10591 1-642)		binds	binds
binds	Ssa3 (from UniProt P09435 1-649)			
binds weakly	Ssa4 (from UniProt P22202 1-642)			
